Reference: the supplement of paper PMC6411743
± gives the standard deviation of the averaged measurements. The entries are a selection whose mix differs from that of the whole data set. Most values lie at the level of the controls, where differences are scatter.

Sequences of proteins named here, by UniProt entry; tags and fusion partners are left off. A change or cut given only in a name is not applied to a line headed by its entry.
UniProt Q9UJS0: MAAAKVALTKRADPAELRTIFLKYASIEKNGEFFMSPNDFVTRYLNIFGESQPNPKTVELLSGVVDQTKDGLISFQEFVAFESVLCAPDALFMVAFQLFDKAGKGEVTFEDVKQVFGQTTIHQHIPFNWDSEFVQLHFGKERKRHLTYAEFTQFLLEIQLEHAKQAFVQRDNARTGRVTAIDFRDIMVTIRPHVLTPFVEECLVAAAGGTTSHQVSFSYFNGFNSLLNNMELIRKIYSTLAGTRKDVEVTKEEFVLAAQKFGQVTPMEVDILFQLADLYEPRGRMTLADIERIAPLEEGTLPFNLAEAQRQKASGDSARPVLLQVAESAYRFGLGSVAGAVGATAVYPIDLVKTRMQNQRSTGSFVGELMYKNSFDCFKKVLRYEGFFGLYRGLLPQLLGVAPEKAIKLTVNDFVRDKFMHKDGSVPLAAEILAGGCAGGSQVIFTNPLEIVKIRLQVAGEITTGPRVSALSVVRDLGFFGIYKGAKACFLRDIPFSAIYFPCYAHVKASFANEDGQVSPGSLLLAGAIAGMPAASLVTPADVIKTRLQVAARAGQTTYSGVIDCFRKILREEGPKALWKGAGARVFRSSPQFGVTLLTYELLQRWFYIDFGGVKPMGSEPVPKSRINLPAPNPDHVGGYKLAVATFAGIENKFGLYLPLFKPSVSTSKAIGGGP
UniProt Q9UHY7: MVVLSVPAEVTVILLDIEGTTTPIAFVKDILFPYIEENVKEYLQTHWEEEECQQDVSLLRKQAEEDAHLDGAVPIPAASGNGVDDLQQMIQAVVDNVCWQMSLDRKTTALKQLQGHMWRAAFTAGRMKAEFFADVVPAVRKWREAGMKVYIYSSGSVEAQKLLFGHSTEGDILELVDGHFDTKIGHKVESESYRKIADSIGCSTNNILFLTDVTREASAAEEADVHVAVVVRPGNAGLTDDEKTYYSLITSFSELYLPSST
UniProt Q9UBE0: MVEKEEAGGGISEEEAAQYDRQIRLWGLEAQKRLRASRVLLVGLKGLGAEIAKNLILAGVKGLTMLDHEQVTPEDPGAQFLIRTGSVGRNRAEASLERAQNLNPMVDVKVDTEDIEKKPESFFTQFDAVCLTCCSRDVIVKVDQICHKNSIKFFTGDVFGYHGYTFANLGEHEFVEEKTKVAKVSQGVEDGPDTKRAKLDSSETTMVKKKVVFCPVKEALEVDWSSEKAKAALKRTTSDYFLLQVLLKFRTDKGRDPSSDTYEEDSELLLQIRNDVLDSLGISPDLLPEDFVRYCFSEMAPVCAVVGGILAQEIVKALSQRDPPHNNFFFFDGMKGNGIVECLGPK
UniProt Q9UJ70, whole entry: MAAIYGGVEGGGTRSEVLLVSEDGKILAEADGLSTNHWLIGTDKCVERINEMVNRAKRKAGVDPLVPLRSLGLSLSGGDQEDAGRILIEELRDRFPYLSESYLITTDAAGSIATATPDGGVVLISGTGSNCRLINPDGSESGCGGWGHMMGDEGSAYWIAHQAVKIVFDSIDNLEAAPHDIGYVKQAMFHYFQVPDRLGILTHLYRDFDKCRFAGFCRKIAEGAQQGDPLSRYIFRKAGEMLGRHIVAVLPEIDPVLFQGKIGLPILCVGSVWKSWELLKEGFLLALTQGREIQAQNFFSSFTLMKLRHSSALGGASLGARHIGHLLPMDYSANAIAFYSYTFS
UniProt Q9UKX7: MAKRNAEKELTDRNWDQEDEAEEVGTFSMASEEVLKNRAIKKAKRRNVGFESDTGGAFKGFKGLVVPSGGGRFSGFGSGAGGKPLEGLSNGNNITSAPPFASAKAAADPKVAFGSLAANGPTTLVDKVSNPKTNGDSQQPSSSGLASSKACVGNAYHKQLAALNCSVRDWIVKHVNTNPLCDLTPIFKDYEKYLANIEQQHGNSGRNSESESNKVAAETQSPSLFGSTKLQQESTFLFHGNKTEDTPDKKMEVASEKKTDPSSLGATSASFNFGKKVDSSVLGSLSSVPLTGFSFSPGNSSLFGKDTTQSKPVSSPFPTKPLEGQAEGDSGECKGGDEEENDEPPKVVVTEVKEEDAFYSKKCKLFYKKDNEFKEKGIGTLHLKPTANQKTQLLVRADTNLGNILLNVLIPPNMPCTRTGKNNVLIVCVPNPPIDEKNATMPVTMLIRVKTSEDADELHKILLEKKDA
UniProt Q9UNH7: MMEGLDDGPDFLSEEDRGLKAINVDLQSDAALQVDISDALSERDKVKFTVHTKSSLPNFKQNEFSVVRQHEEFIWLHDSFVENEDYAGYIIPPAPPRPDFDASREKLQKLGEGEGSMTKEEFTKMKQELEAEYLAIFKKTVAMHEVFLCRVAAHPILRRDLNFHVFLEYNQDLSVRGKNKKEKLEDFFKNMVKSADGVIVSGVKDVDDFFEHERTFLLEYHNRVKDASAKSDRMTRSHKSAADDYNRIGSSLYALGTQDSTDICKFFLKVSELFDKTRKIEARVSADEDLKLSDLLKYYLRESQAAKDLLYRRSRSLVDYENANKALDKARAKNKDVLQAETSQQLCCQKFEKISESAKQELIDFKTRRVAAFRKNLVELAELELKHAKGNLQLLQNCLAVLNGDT
UniProt Q9UIG0: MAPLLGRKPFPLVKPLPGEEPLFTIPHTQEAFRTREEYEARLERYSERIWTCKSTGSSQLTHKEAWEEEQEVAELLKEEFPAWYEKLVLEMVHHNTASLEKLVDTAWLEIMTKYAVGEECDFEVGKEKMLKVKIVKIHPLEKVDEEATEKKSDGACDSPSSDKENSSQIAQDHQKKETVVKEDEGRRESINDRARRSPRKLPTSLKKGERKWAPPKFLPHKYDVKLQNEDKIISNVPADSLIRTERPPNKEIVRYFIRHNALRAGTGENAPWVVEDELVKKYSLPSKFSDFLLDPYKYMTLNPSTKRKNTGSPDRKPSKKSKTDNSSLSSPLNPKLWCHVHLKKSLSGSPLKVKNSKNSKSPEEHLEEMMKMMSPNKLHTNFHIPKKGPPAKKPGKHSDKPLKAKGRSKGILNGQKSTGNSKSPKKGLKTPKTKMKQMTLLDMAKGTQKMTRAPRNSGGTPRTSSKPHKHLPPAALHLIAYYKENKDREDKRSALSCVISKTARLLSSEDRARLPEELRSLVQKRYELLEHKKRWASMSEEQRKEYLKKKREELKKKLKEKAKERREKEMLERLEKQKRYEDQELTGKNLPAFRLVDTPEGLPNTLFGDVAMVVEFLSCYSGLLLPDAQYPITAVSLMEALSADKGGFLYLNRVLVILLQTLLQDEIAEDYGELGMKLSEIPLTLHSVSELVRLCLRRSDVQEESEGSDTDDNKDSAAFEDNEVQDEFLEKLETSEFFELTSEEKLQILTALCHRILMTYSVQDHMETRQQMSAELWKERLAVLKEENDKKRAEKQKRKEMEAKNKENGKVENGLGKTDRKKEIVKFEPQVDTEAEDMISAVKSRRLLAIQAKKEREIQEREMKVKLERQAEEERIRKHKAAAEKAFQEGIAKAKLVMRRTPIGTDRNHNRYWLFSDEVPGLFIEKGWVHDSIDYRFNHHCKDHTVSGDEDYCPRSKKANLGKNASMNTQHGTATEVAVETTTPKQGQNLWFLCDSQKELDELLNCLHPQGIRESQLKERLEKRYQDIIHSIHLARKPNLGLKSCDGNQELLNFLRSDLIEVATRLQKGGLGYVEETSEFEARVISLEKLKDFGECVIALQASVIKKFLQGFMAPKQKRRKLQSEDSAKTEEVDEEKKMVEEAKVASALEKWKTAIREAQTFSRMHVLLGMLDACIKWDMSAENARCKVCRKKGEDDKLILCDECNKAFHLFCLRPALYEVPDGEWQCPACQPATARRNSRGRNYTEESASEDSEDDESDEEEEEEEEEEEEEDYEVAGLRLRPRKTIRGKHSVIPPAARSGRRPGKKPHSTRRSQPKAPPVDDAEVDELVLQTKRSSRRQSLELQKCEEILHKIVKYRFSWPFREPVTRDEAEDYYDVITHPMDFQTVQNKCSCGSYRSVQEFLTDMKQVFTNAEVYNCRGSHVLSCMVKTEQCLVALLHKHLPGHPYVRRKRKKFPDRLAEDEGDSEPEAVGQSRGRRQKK
UniProt Q9UHI6: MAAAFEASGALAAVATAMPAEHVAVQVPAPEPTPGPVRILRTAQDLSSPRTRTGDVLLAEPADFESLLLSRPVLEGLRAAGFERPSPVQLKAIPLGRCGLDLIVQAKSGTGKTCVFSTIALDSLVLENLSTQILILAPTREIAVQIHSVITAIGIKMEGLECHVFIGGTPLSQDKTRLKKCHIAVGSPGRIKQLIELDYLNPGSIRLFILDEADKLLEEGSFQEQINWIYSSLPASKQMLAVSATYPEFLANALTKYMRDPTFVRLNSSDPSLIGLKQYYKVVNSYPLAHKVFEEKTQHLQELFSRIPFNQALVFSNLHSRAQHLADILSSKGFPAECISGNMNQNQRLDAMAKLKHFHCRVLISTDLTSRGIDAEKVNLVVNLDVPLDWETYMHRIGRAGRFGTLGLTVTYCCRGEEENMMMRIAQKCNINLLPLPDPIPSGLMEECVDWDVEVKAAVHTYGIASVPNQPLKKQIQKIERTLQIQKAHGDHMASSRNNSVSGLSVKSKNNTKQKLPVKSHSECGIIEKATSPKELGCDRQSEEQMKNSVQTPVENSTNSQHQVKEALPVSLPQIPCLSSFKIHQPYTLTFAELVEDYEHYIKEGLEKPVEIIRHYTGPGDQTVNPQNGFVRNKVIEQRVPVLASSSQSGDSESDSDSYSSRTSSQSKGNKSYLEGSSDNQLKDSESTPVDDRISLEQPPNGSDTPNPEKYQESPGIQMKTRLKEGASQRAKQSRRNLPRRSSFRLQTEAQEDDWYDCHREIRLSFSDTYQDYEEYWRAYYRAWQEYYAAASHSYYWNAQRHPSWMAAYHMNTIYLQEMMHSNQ
UniProt Q9UMX5: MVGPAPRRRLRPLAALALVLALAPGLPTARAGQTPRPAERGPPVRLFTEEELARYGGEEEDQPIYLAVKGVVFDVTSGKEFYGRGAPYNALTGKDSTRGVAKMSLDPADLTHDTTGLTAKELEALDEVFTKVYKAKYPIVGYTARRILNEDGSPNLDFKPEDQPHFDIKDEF
UniProt Q9UBS9: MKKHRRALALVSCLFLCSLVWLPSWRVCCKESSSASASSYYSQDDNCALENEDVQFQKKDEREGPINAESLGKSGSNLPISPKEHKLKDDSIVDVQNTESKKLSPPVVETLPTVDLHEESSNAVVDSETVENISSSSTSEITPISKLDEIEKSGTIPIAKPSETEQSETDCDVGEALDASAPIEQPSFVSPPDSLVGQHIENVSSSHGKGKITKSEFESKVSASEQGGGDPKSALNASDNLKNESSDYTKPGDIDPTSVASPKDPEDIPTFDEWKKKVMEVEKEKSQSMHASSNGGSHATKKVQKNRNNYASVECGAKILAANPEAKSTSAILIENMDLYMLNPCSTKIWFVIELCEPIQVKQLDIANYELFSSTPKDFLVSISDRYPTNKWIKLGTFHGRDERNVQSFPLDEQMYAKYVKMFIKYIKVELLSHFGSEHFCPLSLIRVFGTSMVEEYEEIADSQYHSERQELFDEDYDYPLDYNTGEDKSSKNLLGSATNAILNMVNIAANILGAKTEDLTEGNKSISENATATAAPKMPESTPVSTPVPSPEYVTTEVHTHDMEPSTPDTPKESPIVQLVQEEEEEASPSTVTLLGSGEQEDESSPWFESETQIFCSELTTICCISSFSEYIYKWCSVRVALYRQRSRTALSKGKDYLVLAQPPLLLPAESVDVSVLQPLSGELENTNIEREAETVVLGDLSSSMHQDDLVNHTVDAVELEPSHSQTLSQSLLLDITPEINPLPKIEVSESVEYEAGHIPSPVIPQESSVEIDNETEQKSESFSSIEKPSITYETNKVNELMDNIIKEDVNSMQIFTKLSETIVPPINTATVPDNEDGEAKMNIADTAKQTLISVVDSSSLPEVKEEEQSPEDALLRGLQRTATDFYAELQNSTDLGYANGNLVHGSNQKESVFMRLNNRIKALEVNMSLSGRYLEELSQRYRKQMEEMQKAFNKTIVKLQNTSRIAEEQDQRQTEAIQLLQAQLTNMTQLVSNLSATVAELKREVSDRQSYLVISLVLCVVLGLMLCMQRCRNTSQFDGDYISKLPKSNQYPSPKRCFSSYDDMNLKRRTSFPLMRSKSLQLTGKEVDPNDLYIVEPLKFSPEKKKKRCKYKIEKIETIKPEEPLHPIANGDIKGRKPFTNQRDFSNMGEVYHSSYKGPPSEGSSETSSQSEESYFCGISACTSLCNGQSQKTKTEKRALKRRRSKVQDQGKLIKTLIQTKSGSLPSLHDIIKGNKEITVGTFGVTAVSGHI
UniProt Q9UGM6: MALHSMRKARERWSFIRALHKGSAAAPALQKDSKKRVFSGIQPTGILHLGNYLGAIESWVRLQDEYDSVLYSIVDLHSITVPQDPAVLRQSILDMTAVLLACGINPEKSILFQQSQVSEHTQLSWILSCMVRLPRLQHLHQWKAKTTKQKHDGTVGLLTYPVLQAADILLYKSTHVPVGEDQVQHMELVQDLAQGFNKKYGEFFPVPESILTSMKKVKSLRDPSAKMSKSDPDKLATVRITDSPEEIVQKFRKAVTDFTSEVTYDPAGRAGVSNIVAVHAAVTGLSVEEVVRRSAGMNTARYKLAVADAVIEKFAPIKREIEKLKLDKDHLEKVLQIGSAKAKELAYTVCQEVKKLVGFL

Compound: Nc1ncnc2c1ncn2[C@@H]1O[C@H](COP(=O)(O)OP(=O)(O)OP(=O)(O)O)[C@@H](O)[C@H]1O [adenosine triphosphate]
Assay: NP40-soluble protein abundance relative to vehicle (solubility fold change) (ratio); higher = more soluble protein in presence of ATP
Method in brief: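 Crude Jurkat lysate, prepared by Dounce homogenisation, was exposed to eight concentrations from 0.1 to 10 mM for 10 min at room temperature and then 3 min at 37 °C. Solubilisation used 0.8% NP40 with benzonase for 60 min at 4 °C, followed by ultracentrifugation and TMT labelling of the supernatant for LC-MS/MS. After vsn normalisation of intensities, each value is the fold change against the detergent-processed vehicle within each replicate, across three independent experiments.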

Target	NP40-soluble protein abundance (concentration: 0.1mM)	NP40-soluble protein abundance (concentration: 0.5mM)
EPDR1 (UniProt Q9UM22)	1 ± 0.039	0.997 ± 0.048
UniProt Q9UKT9 and related entries	1.12 ± 0.075	1.13 ± 0.08
SLC5A6 (UniProt Q9Y289)	0.962 ± 0.0049	0.969 ± 0.033
GRHPR (UniProt Q9UBQ7)	1.03 ± 0.069	1.05 ± 0.055
MBD2 (UniProt Q9UBB5)	0.987 ± 0.081	0.956 ± 0.053
C19orf53 (UniProt Q9UNZ5)	0.93 ± 0.15	0.984 ± 0.33
SPG7 (UniProt Q9UQ90)	1.05 ± 0.021	1.11 ± 0.052
UniProt Q9UPW0 and related entries	0.963 ± 0.075	0.964 ± 0.044
COPG2 (UniProt Q9UBF2)	0.995 ± 0.066	1.03 ± 0.02
UniProt Q9UJS0 and related entries	1.03 ± 0.054	1.08 ± 0.068
ENOPH1 (UniProt Q9UHY7)	1.06 ± 0.043	1.04 ± 0.085
UniProt Q9ULJ3	0.988 ± 0.037	0.997 ± 0.031
UniProt Q9UJV9 and related entries	1.09 ± 0.019	1.36 ± 0.036
SAE1 (UniProt Q9UBE0)	0.994 ± 0.064	1.01 ± 0.044
AP4E1 (UniProt Q9UPM8)	1.08 ± 0.017	1.07 ± 0.041
INO80 (UniProt Q9ULG1)	1.17 ± 0.099	1.1 ± 0.082
NAGK (UniProt Q9UJ70)	1.01 ± 0.018	0.989 ± 0.071
SERGEF (UniProt Q9UGK8)	0.995 ± 0.1	1 ± 0.12
UniProt Q9UGQ2 and related entries	1.03 ± 0.14	1.07 ± 0.011
UniProt Q9UJU6 and related entries	0.98 ± 0.022	0.991 ± 0.03

Target	NP40-soluble protein abundance (concentration: 0.1mM)	NP40-soluble protein abundance (concentration: 0.5mM)
UniProt Q9UJX2 and related entries	1.01 ± 0.032	1.01 ± 0.038
UniProt Q9UDT6-2	0.983 ± 0.083	1.09 ± 0.11
UniProt Q9UIB8 and related entries	0.9855 ± 0.0015	0.957 ± 0.053
UniProt Q9UQ13 and related entries	1.01 ± 0.041	1 ± 0.12
UniProt Q9UKX7 and related entries	1.01 ± 0.013	1.11 ± 0.046
UBQLN2 (UniProt Q9UHD9)	0.876 ± 0.088	0.845 ± 0.12
UniProt Q9UPQ9-1|Q9UPQ9 and related entries	0.984 ± 0.057	0.994 ± 0.053
UniProt Q9UK53-2|A0A0C4DFW2|Q9UK53 and related entries	0.99 ± 0.085	1.02 ± 0.073
PNMA2 (UniProt Q9UL42)	0.969 ± 0.025	0.947 ± 0.06
SNX6 (UniProt Q9UNH7)	0.9667 ± 0.0081	1.02 ± 0.07
FKBPL (UniProt Q9UIM3)	0.965 ± 0.046	0.938 ± 0.063
DICER1 (UniProt Q9UPY3)	1.02 ± 0.027	1.02 ± 0.027
UniProt Q9UKA8 and related entries	0.964 ± 0.087	0.93 ± 0.12
UniProt Q9UIG0 and related entries	0.988 ± 0.01	0.994 ± 0.032
DUSP12 (UniProt Q9UNI6)	1.04 ± 0.098	1.07 ± 0.12
UniProt Q9UN36 and related entries	0.988 ± 0.018	0.962 ± 0.022
UniProt Q9UQ49 and related entries	0.951 ± 0.12	0.969 ± 0.09
DNAJB11 (UniProt Q9UBS4)	1.07 ± 0.073	1.05 ± 0.082
ANKRD50 (UniProt Q9ULJ7)	1.02 ± 0.067	1.06 ± 0.028
USP24 (UniProt Q9UPU5)	1.02 ± 0.047	1.03 ± 0.024

Target	NP40-soluble protein abundance (concentration: 0.1mM)	NP40-soluble protein abundance (concentration: 0.5mM)
MAGED2 (UniProt Q9UNF1)	0.95 ± 0.01	0.956 ± 0.022
DDX20 (UniProt Q9UHI6)	0.956 ± 0.1	0.949 ± 0.09
PRPF19 (UniProt Q9UMS4)	1.02 ± 0.048	1.01 ± 0.039
NENF (UniProt Q9UMX5)	0.946 ± 0.05	0.931 ± 0.065
TBK1 (UniProt Q9UHD2)	1.04 ± 0.048	1.03 ± 0.06
UniProt Q9P2N6-3	1.03 ± 0.054	1.04 ± 0.11
RUVBL1 (UniProt Q9Y265)	1.04 ± 0.014	1.13 ± 0.049
GNPTG (UniProt Q9UJJ9)	0.983 ± 0.12	0.93 ± 0.14
PEF1 (UniProt Q9UBV8)	0.834 ± 0.12	0.789 ± 0.19
UniProt Q9UBC3 and related entries	1.07 ± 0.066	1.3 ± 0.1
UniProt Q9UPU7 and related entries	1.04 ± 0.023	1.01 ± 0.061
UniProt Q9UNA1 and related entries	1.05 ± 0.066	1.03 ± 0.072
UniProt Q9UBS9 and related entries	0.987 ± 0.098	0.901 ± 0.046
UniProt Q9UL18 and related entries	1.02 ± 0.073	1.06 ± 0.079
UniProt Q9UDY8 and related entries	1.06 ± 0.014	1.04 ± 0.07
ARPP21 (UniProt Q9UBL0)	0.981 ± 0.025	0.957 ± 0.061
WARS2 (UniProt Q9UGM6)	1.01 ± 0.088	1 ± 0.082
UniProt Q9UBL3 and related entries	1.02 ± 0.017	1.06 ± 0.037
GTF3C4 (UniProt Q9UKN8)	1.02 ± 0.026	1.05 ± 0.035

2 neighbouring records already listed, quoted:
Target	NP40-soluble protein abundance (concentration: 0.1mM)	NP40-soluble protein abundance (concentration: 0.5mM)
UniProt Q9P2N6-3	1.03 ± 0.054	1.04 ± 0.11
RUVBL1 (UniProt Q9Y265)	1.04 ± 0.014	1.13 ± 0.049
